This is an account of results in PubChem BioAssay AID2685 (National Center for Advancing Translational Sciences (NCATS), 2010).

As usually defined, the AC50 is the midpoint of the concentration-response curve, whichever way the signal moves. Low readings indicate activity at low concentration, high ones activity only at high concentration.

Structures are written as SMILES. Some of the results follow. Shown are side measurements of this screen, not its main read-out; they come without a call. Compounds called inactive in the main read-out are mostly missing here. The note in brackets gives the kind of curve behind each potency; many fits are weak.

The assay can be described thus: qHTS Assay for Lipid Storage Modulators in Drosophila S3 Cells.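 As to cell number change: cells counted by Cell Tracker Red CMTPX staining in the red channel.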 The following applies: BODIPY lipid droplet fluorescence, 18-24 h; for cell number change: measured here: cell count max response, cells fed with added oleic acid. Summed up:
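Drosophila S3 cells got compounds at several concentrations plus oleic acid (400 uM solution). Laser-scanning cytometry with 488 nm excitation read lipid droplets at 500-530 nm and cells at 575-640 nm. Percent activity was relative to 20 uM Triacsin C.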
(In general: In qHTS, concentration-response curves come from the screen itself.)

Where [1] appears, read: measured here: lipid fluorescence (Fed channel) AC50, cells fed with added oleic acid.
Where [2] appears, read: measured here: cell number channel AC50, cells fed with added oleic acid.

For `Cc1cc(C(=O)N2CCc3ccccc32)c2cc(F)ccc2n1`, the cell number change was -16.5%. The AC50 under setting [1] was 0.326 µM [rising, full curve, poor fit].
For `N#CCCN(C(=S)NC(=O)c1ccco1)c1ccccc1F`, the cell number change is -21%. Besides, under setting [2], the AC50 was 0.82 µM [falling, full curve, poor fit]. Further, the AC50 under setting [1] was 0.058 µM [falling, full curve, poor fit].
`COc1ccc(C(=O)N2CCN(c3ccc(NC(=O)Cc4ccccc4)cc3)CC2)cc1`: the cell number change turned out to be 10.4%. In addition, the AC50 under setting [2] is 0.13 µM [rising, partial curve, poor fit]. Also, the AC50 under setting [1] is 18.4 µM [rising, single point].
For `CC(NC(=O)CSc1nc(C2CC2)n(-c2ccccc2)n1)c1ccco1` (stereo not given), the cell number change is -3.44%.
As for `Cn1c(N)c(C(=O)COC(=O)/C=C/c2cccc(Br)c2)c(=O)n(C)c1=O`, the cell number change came to 20.5%.
For the molecule `CCOc1ccc(/C=C2\SC(=S)N(CC(=O)Nc3ccccn3)C2=O)cc1`, the cell number change worked out at 1.18%. Moreover, the AC50 under setting [1] was 20.6 µM [rising, partial curve].
In the case of `CN(Cc1ccccc1F)C(=O)C1CCCN(C(=O)c2ccc(Cl)cc2)C1` (stereo not given), the cell number change came out at 18.1%.
As to `COc1cc(/C=N/NC(=O)CSc2cc(C)c(Br)cc2C)ccc1O`, under setting [1], the AC50 was 10.3 µM [rising, partial curve].
As to `CN1/C(=C\C(=O)c2cncc(Br)c2)C(C)(C)c2ccccc21`, the cell number change was -39.9%. For the same molecule, the AC50 under setting [1] was 29.1 µM [falling, single point].
In the case of `O=C(CN1CCN(c2ccccn2)CC1)Nc1ccc(F)cc1F`, the cell number change was 15.3%. The AC50 under setting [1] is 32.6 µM [falling, single point].
Turning to `O=C1CSC(=NC2CCCCC2)N1`, the cell number change was -15.6%. Further, the AC50 under setting [1] was 0.92 µM [falling, full curve].
As for `CCCOc1ccc(NC(=O)c2c(-c3ccccc3)noc2C)cc1`, the cell number change came to 56%. The AC50 under setting [2] is 11.6 µM [rising, partial curve]. In addition, the AC50 under setting [1] is 0.58 µM [rising, partial curve].
Turning to `CC(C)(C)c1ccc(CNc2ccc([N+](=O)[O-])cn2)cc1`, the cell number change was -28.5%. Further, under setting [1], the AC50 is 32.6 µM [falling, single point].
For the molecule `O=C1CCCc2c1[nH]c1c(Br)cccc21`, the cell number change is -4.87%. The concentration at half-maximal activity (AC50) under setting [2] was 7.31 µM [rising, single point].
For the molecule `NC(=O)C1CCCN(C(=O)c2cccc(S(=O)(=O)N3CCCCCC3)c2)C1` (stereo not given), the cell number change was -30.1%. Moreover, the AC50 under setting [2] was 29.1 µM [falling, single point]. Further, the AC50 under setting [1] was 0.13 µM [falling, full curve, poor fit].
On to `Cc1cccc2c(N=Nc3ccc(S(=O)(=O)Nc4ccc(Cl)cc4)cc3[N+](=O)[O-])c(O)[nH]c12`, for which the cell number change came to 17.2%. In addition, the AC50 under setting [1] was 1.03 µM [falling, single point].
In the case of `Cc1ccc2cccc(NC(=S)NC(=O)c3ccn(C)n3)c2n1`, the cell number change was -63.8%. Under setting [2], the half-maximal activity concentration (AC50) was 16.4 µM [falling, single point]. Moreover, under setting [1], the AC50 is 16.4 µM [falling, single point].
